Source: PubChem BioAssay AID2685 (National Center for Advancing Translational Sciences (NCATS), 2010)
The list shows a part of the results. These are further read-outs of the screen, such as a control signal, another cell line or another target. No call is given for them. The list favours compounds with an active or inconclusive main result. The note in brackets gives the kind of curve behind each potency; many fits are weak.

Assay: qHTS Assay for Lipid Storage Modulators in Drosophila S3 Cells;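 on cell number change: cells counted by Cell Tracker Red CMTPX staining in the red channel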
Settings: BODIPY lipid droplet fluorescence, 18-24 h; for cell number change: measured here: cell count max response, cells fed with added oleic acid
Outline: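 Drosophila S3 cells got compounds at several concentrations plus oleic acid (400 uM solution). Laser-scanning cytometry with 488 nm excitation read lipid droplets at 500-530 nm and cells at 575-640 nm. Percent activity was relative to 20 uM Triacsin C.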

[1] = measured here: cell number channel AC50, cells fed with added oleic acid
[2] = measured here: lipid fluorescence (Fed channel) AC50, cells fed with added oleic acid

Row | SMILES | AC50 [1] | AC50 [2] | cell number change
1 | O=C(C1CC1)N1N=C(c2cccc(Br)c2)CC1(O)C(F)(F)F (stereo not given) | 6.51 µM [falling, single point] | – | –
2 | CSc1ccccc1NC(=O)C1=CC(c2cccs2)=NS(=O)(=O)N1C | – | 1.16 µM [falling, full curve] | –
3 | CCN1CCCC1CN(Cc1cc2ccc(C)cc2[nH]c1=O)C(=S)Nc1ccc(OC)cc1 (stereo not given) | 0.13 µM [rising, full curve, poor fit] | – | 28.5%
4 | O=C(Nc1ccccc1C(=O)N1CCN(Cc2ccccc2)CC1)c1ccc(F)cc1 | 0.259 µM [rising, partial curve, poor fit] | – | 62%
5 | COC(=O)c1cc(C(=O)NC(C)C2CC3CCC2C3)cc([N+](=O)[O-])c1 (stereo not given) | – | – | -16.7%
6 | Cc1cccc(NC(=O)CSc2ncnc3nc[nH]c23)c1 | – | 0.206 µM [rising, full curve, poor fit] | –
7 | CS(=O)(=O)N(Cc1ccccc1Cl)c1ccc(C(=O)N2CCCC2)cc1 | – | 20.6 µM [falling, single point] | 20.1%
8 | O=C(NNC(=O)c1ccc2nc[nH]c2c1)c1ccccc1 | 3.26 µM [falling, single point] | – | 22.6%
9 | CNC(=O)c1ccccc1Sc1ccccc1C#N | – | 6.51 µM [falling, single point] | 16%
10 | CCCn1nnnc1SCC(=O)NCc1cccs1 | – | 29.1 µM [falling, single point] | -4.19%
11 | CCN(c1ccccc1)S(=O)(=O)c1ccc(C(=O)NCCc2ccc(S(N)(=O)=O)cc2)cc1 | – | – | 16.7%
12 | O=C(O)CCn1[nH]c(=O)c2ccccc2c1=O | 0.231 µM [falling, full curve, poor fit] | 0.231 µM [falling, full curve, poor fit] | -38.3%
13 | CC1CCN(C(=O)c2ccc3c(=O)n4c(nc3c2)CCCCC4)CC1 | – | 29.1 µM [falling, single point] | 94.3%
14 | Nc1nc(SCc2ccc(Br)cc2)n[nH]1 | – | 2.91 µM [falling, full curve] | 13.5%
15 | CC1(C(=O)c2ccccc2)C2c3c(ccc4ccccc34)OC(=O)C21C(=O)N1CCOCC1 (stereo not given) | 0.116 µM [rising, partial curve, poor fit] | – | –
16 | CCOC(=O)CC1NCCc2c1[nH]c1ccc(OC)cc21 (stereo not given) | – | 7.31 µM [rising, partial curve] | 18.5%
17 | O=C(c1cccs1)N1CCN(c2cccc(Cl)c2)CC1 | – | – | -4.69%
18 | O=C(c1cccs1)N(C(=O)c1cccs1)c1ccccn1 | 1.84 µM [rising, partial curve] | 1.64 µM [rising, partial curve] | 2.53%
19 | Cc1noc(C)c1C(=O)OCC(=O)NC1CC1 | 6.51 µM [falling, single point] | – | -20.5%
20 | Cc1cccc(N2CCN(Cc3ccc(Br)o3)CC2)c1C | – | 23.1 µM [falling, single point] | -23.1%
21 | CC(C)(C)N1NC(=O)Nc2ccccc2C1=O | 7.31 µM [falling, full curve, poor fit] | – | -31.9%

Row | SMILES | AC50 [1] | AC50 [2] | cell number change
22 | COc1ccc(/C=N/NC(=O)c2c(C)nc3ccc(Br)cn23)cc1OC | – | – | 27.1%
23 | COc1ccc(CCNC(=O)CSc2nnc(-c3cccc(F)c3)o2)cc1OC | – | 1.84 µM [rising, partial curve] | -9.42%
24 | COc1ccc(-c2noc(CCC(=O)NCCc3ccccc3)n2)cc1OC | – | 14.6 µM [rising, partial curve, poor fit] | -13.4%
25 | CCOC(=O)C1=C(C)OC(N)=C(C#N)C1c1ccc(OC)c(C)c1OC (stereo not given) | – | – | 18.1%
26 | Cc1cccc(-n2cc(-c3ccccc3)c3c(NN4CCOCC4)ncnc32)c1 | 8.2 µM [rising, partial curve, poor fit] | – | 39.4%
27 | O=C(COC(=O)CNS(=O)(=O)c1ccccc1)NC12CC3CC(CC(C3)C1)C2 | – | – | 43.2%
28 | CCNc1cc(N2CCOCC2)nc(SC)n1 | – | 1.41 µM [rising, partial curve, poor fit] | 4.15%
29 | COc1cc(CNc2ccc(N3CCCC3)cc2)ccc1OCc1ccccc1F | – | 25.9 µM [rising, single point] | 4.29%
30 | COc1ccc(C2NC(=O)C(C#N)=C(S)N2c2cccc(C)c2)cc1OC (stereo not given) | – | 0.13 µM [falling, single point] | 24.6%
31 | Cn1c(=O)c2c(nc(SCc3cc4c(cc3Cl)OCO4)n2C)n(C)c1=O | – | – | 2.72%
32 | CCn1c(CN2CCN(C(=O)c3ccco3)CC2)nc2c1c(=O)n(C)c(=O)n2C | – | 29.1 µM [rising, single point] | 14.9%
33 | O=C(NCc1ccccc1Cl)C1CCCN(S(=O)(=O)c2cccc3nsnc23)C1 (stereo not given) | 9.2 µM [rising, partial curve] | 10.3 µM [rising, partial curve] | 104%
34 | COC(=O)C1CCN(c2ccc([N+](=O)[O-])cc2)CC1 | – | 0.092 µM [falling, full curve] | –
35 | COC(=O)c1ccc(C2/C(=C(\O)c3cccc(OC)c3)C(=O)C(=O)N2CCCN(C)C)cc1 (stereo not given) | – | 6.51 µM [rising, partial curve] | -8.51%
36 | CC(=O)C1=C(O)C(=O)N(c2cccnc2)C1c1ccc(Cl)cc1 (stereo not given) | – | 16.4 µM [falling, single point] | 0.696%
37 | COc1ccc2nc(C)cc(SCC(=O)N/N=C/c3cccc4ccccc34)c2c1 | 29.1 µM [falling, single point] | 29.1 µM [falling, single point] | -134%
38 | O=C(O)c1ccc(CSc2nnc(-c3ccncc3)n2-c2ccc(Br)cc2)cc1 | – | – | 23.1%
39 | Oc1[nH]c2ccccc2c1N=Nc1nc(Nc2ccccc2)nc(N2CCOCC2)n1 | 1.16 µM [falling, full curve] | 1.3 µM [falling, full curve] | -41.5%
40 | Cc1ccc(CO/N=C/c2c(O)cc(C)oc2=O)cc1 | – | 0.116 µM [rising, single point] | -4.3%
41 | CCOc1ccc(C(=O)COC(=O)CN2C(=O)NC3(CCCCC3C)C2=O)cc1 (stereo not given) | 0.0517 µM [rising, full curve, poor fit] | 2.06 µM [rising, partial curve] | 6.81%

Full records, quoted from the list. Values in the order: AC50 [1] | AC50 [2] | cell number change
`COc1ccc(-c2noc(CCC(=O)NCCc3ccccc3)n2)cc1OC` is listed as – | 14.6 µM [rising, partial curve, poor fit] | -13.4%
`CCOC(=O)C1=C(C)OC(N)=C(C#N)C1c1ccc(OC)c(C)c1OC` (stereo not given) is listed as – | – | 18.1%
